Experiment [1] has as its target GST fusion protein containing the p21-binding domain of human Pak1 (human) (UniProt Q13153). Nature of the experiment: pull-down; GST fusion protein (Raf1-RBD, Pak1-PBD or Rhotekin-RBD) as bait on beads; lysates of PC12 cells or PC12 transfectants, unstimulated or stimulated by NGF (50 ng/ml; 0 or 15 min in Fig 6); bound proteins detected by Western blot; only the target purified. (In general: A western blot detects proteins with antibodies after separation by electrophoresis.)

Chains of the proteins cited; added tags and fusions are not shown. Lines headed by an entry give the natural chain unless they say otherwise; changes in a name come on top.
UniProt Q13153: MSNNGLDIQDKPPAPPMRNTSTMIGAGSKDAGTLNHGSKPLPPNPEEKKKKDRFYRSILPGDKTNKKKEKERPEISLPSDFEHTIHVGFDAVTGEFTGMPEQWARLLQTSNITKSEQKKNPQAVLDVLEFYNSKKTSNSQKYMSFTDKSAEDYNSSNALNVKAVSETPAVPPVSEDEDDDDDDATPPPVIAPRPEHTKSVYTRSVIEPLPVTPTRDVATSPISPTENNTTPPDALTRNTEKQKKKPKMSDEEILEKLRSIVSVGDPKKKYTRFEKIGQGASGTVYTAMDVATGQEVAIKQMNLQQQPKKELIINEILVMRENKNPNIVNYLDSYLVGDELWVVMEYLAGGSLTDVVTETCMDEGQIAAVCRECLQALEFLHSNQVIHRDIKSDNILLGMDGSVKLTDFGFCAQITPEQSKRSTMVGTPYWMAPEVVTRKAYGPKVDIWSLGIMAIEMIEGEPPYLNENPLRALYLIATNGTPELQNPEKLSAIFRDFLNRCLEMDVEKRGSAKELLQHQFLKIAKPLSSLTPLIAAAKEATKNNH
UniProt A0A8I6ABA8: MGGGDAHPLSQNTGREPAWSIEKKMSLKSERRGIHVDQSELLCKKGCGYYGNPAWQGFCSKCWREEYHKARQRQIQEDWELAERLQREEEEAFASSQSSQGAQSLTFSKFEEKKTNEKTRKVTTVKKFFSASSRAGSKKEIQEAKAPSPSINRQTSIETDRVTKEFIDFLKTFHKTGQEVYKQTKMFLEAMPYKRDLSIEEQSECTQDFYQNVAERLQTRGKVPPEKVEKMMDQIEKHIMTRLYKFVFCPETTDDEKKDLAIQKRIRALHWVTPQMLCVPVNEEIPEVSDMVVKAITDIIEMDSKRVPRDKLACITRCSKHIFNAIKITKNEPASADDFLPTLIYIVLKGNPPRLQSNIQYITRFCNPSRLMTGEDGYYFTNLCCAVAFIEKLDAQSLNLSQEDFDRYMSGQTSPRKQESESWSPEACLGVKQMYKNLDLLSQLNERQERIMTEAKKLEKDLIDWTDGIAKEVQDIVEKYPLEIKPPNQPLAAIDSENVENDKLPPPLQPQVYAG

In experiment [2] the target is GST fusion protein containing the Ras-binding domain of Raf-1 (UniProt P04049). Described as above.

Results are given in words; binding and its absence hold for the method and conditions named. Binding seen in cells or lysates may run through a third protein. Binding calls can cover weak binding; strength is not graded here.

Regarding “RabGEF1 (rat, endogenous in PC12 cells) (from UniProt A0A8I6ABA8 1-515)”, the binding entry in experiment [1] and in experiment [2] was “binds” throughout.

Turning to “Cdc42 (active, GTP-bound; endogenous in PC12 cells) (from UniProt Q8CFN2 1-191)”, in experiment [1], the binding result is listed as “binds”.

Source of the values: paper PMC4654474.
